These are yes or no findings as the source states them, for the method shown. Binding seen in cells or lysates may run through a third protein. Some entries that bind do so weakly or less than the wild type.
Target: HSPB7 (mouse (endogenous in mouse heart)) (UniProt P35385)
Assay: co-IP; 1 mg total protein of adult HSPB7Flox/Flox mouse heart lysate (Cell Lysis Buffer, protease inhibitors) incubated with anti-FLAG M2 affinity gel at 4°C overnight; beads washed with PBS; western blotting; wild-type heart as negative control

The chains behind the UniProt entries cited, without tags or fusion partners. Residues count along the entry.
UniProt P35385: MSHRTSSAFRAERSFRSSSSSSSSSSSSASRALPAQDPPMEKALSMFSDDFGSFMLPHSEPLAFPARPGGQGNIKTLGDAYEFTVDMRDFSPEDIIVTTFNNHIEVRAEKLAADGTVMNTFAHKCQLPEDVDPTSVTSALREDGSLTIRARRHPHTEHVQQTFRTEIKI
UniProt P15116, residues 160-906: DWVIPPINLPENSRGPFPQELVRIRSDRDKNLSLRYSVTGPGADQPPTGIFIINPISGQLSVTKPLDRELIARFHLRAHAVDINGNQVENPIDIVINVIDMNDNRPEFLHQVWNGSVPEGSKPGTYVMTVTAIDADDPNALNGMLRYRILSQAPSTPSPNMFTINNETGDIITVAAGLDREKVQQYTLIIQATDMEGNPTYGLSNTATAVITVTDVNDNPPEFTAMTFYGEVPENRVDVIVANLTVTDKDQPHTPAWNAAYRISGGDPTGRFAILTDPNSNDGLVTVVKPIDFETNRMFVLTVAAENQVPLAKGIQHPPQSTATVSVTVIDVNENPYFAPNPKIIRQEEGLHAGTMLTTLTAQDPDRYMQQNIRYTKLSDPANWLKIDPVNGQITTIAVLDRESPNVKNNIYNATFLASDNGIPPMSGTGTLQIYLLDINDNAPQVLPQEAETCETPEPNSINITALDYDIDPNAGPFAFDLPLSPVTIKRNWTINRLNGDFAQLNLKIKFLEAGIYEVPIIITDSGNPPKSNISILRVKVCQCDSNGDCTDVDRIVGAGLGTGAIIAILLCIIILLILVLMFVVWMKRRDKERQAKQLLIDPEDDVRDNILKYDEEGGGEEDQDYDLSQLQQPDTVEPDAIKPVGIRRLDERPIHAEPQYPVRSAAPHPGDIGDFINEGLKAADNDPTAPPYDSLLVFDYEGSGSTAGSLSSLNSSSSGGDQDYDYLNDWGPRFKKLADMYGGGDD
UniProt P23242: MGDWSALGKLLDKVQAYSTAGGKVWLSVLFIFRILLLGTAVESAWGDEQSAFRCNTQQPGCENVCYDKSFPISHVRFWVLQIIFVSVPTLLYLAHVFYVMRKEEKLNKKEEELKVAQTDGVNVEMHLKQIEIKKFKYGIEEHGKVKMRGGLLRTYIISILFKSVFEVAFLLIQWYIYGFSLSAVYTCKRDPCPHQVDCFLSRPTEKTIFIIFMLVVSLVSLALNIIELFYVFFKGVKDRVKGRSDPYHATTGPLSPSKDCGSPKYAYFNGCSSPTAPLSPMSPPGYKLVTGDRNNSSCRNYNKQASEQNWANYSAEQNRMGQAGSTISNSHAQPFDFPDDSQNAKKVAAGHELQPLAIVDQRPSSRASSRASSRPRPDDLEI
UniProt Q8VHX6: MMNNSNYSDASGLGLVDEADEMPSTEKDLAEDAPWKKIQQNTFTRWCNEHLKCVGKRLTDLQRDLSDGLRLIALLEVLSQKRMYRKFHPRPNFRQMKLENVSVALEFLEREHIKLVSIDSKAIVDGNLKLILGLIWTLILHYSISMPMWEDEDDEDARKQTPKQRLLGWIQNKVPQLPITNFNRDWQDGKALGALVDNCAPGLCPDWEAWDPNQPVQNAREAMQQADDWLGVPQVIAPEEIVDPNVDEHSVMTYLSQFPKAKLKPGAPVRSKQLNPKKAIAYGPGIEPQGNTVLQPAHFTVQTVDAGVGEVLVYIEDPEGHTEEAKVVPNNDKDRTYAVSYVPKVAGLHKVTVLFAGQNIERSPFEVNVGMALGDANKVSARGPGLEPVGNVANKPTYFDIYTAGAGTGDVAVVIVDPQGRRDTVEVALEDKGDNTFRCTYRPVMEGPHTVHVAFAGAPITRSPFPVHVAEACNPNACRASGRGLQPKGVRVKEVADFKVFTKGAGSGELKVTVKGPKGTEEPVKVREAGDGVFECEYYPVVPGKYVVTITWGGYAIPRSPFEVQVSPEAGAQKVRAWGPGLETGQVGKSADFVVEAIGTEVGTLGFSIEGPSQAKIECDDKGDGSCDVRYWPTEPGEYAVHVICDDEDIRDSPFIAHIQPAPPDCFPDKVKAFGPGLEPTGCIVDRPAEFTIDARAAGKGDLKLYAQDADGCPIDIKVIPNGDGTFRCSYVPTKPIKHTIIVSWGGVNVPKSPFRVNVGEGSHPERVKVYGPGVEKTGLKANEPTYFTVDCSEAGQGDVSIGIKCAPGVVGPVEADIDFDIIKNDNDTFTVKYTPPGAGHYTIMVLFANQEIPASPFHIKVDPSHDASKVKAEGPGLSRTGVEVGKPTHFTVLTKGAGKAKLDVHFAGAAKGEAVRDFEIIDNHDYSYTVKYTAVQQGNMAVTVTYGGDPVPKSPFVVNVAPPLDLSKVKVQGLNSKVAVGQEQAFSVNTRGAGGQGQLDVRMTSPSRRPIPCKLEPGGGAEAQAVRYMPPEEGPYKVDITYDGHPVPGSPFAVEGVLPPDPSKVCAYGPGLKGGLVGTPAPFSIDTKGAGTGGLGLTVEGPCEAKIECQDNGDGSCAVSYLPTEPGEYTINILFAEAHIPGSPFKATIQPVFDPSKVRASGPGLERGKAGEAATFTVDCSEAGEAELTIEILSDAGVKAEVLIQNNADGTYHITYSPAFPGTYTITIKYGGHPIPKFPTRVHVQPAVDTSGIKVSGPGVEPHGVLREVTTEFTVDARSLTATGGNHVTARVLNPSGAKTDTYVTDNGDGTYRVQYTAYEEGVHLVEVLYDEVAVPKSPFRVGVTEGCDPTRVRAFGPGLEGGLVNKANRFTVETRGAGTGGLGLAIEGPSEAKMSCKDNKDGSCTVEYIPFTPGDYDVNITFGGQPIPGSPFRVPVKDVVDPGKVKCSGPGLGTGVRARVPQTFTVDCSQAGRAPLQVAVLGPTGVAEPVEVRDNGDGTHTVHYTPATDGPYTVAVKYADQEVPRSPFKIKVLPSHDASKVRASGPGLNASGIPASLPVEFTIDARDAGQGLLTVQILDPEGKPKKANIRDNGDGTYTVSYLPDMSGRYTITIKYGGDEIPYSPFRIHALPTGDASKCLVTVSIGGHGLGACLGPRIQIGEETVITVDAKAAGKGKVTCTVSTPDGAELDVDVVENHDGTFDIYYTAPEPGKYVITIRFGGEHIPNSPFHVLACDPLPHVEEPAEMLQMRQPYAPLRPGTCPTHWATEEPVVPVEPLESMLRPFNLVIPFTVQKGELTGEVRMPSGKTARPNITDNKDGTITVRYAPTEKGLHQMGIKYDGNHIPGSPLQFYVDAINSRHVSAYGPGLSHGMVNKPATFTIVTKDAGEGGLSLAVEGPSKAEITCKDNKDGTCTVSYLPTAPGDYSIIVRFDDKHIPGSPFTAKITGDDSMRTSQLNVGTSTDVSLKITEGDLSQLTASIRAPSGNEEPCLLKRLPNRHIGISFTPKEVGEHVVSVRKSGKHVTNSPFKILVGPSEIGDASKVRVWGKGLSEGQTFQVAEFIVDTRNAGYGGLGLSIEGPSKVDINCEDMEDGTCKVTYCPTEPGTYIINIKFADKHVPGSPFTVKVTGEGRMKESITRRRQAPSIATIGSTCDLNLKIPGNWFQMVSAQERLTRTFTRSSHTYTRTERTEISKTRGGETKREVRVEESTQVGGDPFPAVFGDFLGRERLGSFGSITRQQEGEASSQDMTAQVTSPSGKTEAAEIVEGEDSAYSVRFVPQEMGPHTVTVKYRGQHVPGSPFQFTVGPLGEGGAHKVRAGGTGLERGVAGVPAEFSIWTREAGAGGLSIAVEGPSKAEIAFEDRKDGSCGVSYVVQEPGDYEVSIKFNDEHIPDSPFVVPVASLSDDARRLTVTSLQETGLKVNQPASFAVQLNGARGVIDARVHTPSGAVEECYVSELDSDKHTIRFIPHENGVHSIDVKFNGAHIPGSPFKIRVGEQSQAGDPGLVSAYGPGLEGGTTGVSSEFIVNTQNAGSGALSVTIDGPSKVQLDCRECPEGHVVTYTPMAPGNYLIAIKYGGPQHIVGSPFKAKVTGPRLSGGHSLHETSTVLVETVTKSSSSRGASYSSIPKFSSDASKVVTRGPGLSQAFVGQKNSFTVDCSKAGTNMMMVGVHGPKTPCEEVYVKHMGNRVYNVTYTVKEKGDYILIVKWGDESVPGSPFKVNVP

| binding | Substance |
| --- | --- |
| no binding | N-cadherin (from UniProt P15116 160-906) |
| no binding | connexin 43 (from UniProt P23242 1-382) |
| binds | filamin C (from UniProt Q8VHX6 1-2726) |
